Results reported in PMC9584609.
No constants are given. Whether binding was seen depends on the method and setting.

Molecular target: barttin-mVenus-PAmCherry (human) (UniProt Q8WZ55)
Assay: native gel or EMSA; high-resolution clear native electrophoresis (hrCNE); lysate of transfected HEK293T cells in 0.1 M sodium phosphate with 0.5% digitonin or 20 mM DDM; 4-14% acrylamide gradient gel run at 4 °C; mVenus fluorescence scanned; VGLUTs and sialin with and without PNGaseF

binding: no binding
B1: barttin-mVenus-PAmCherry (protein, UniProt Q8WZ55 1-320)
chain: MADEKTFRIGFIVLGLFLLALGTFLMSHDRPQVYGTFYAMGSVMVIGGIIWSMCQCYPKITFVPADSDFQGILSPKAMGLLENGLAAEMKSPSPQPPYVRLWEEAAYDQSLPDFSHIQMKVMSYSEDHRSLLAPEMGQPKLGTSDGGEGGPGDVQAWMEAAVVIHKGSDESEGERRLTQSWPGPLACPQGPAPLASFQDDLDMDSSEGSSPNASPHDREEACSPQQEPQGCRCPLDRFQDFALIDAPTLEDEPQEGQQWEIALPNNWQRYPRTKVEEKEASDTGGEEPEKEEEDLYYGLPDGAGDLLPDKELGFEPDTQG
